According to PubChem BioAssay AID1347423 (Functional Genomics Laboratory (NCATS/FGL), 2020):
In all, about 52,000 sequences went through this assay and about 210 (0.4%) were called active.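 How the source made its calls: active means gene whose silencing raises cell survival under the drug, median off-target-corrected z-score across its silencing RNAs 2 or more; inactive means the rest.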 This is one part of the list.

Assay: Resistance to Poly (ADP-Ribose) Polymerase inhibitor: Gene Identification via Genome-wide siRNA Screen
Details: mouse BRCA2 R2336H ES cells, olaparib, CellTiter-Glo viability; hits give high values
How it was run: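 Genome-wide siRNA screen (3 siRNAs/gene, 20 nM) in mouse ES cells carrying hypomorphic BRCA2 R2336H; olaparib 500 nM added 48 h post-transfection, CellTiter-Glo viability 72 h later. Normalized to plate-median negative control; MAD z-scores, gene median, seed-adjusted.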

Row | Sequence | z-score
1 | GAUUCUUUGUAGGGAGAUATT against Olfr26 | inactive: -0.295
2 | GGAAAUAUAUCCCGGACAGTT against Sirt1 | inactive: -0.842
3 | GCUUGUAGUUAAGGUGCACTT against Apbb1ip | inactive: 0.00446
4 | GGACAAAAUCCUGCACAUUTT against Dnajb5 | inactive: -0.792
5 | CCACCUUUUUCUACAAAGUTT against Slc16a9 | inactive: 0.275
6 | GGUACUCGGUUAUCAUGAATT against Olfr1403 | inactive: 1.39
7 | GGGAUACCAUCUUUAUGGCTT against A230074B11Rik | inactive: 0.0205
8 | GGAAAUGUUAUCUUGGAAUTT against 2310008M20Rik | inactive: -0.752
9 | GCAAUCACAAUCAGCUCCGTT against V1rg8 | inactive: 0.713
10 | GGUAAUUUUGGCUCUUGGATT against Eif4a2 | inactive: -0.424
11 | GGUCAUUUUUGAGGUGCUGTT against Grin2d | inactive: 0.979
12 | AGUGAAGUAUCCAGGGUGUTT against Tex18 | inactive: -1.43
13 | GGAGAUCAUAUGAUUGAGATT against Plscr2 | inactive: 2.01
14 | GGAGAUGAAAUCUACAAAUTT against Igfbp1 | inactive: -0.914
15 | GCACCCUAGAGGUAAAAGATT against Taf12 | inactive: -2.38
16 | GCUGGUAGCCCGACAUAAUTT against Daam2 | inactive: -0.386
17 | CCUGUGUCAAUCCUGUGCATT against Ifitm7 | inactive: -0.932
18 | GGCCAUCAGCAAAGGAUGCTT against C130074G19Rik | inactive: 0.44
19 | CGUGUUCUUAAUUUGCUUUTT against Rac1 | inactive: 0.907
20 | GGUAAUCUAUGAGACUCCATT against Gng5 | inactive: -0.318
21 | GGAUCCUGCUCAAAAAAGUTT against 6530401D17Rik | inactive: -0.321
22 | GGAACUUCAUAAACACUUGTT against Oas3 | inactive: 0.178
23 | GGUGAACGAUGUCAACUUUTT against Dvl1 | inactive: -0.0182
24 | CGCAGUGACCUCAUUAACGTT against Klf7 | inactive: 1
25 | CCCGUGAAAACAGUUGUCATT against Scly | inactive: -1.02
26 | GGAAGACGAAGAGCUGACATT against Psen1 | inactive: -0.177

Reprinted at random: three entries already listed, in no set order.
Row | Sequence | z-score
17 | CCUGUGUCAAUCCUGUGCATT against Ifitm7 | inactive: -0.932
20 | GGUAAUCUAUGAGACUCCATT against Gng5 | inactive: -0.318
1 | GAUUCUUUGUAGGGAGAUATT against Olfr26 | inactive: -0.295

Reprinted from above for reference:
Row | Sequence | z-score
11 | GGUCAUUUUUGAGGUGCUGTT against Grin2d | inactive: 0.979
12 | AGUGAAGUAUCCAGGGUGUTT against Tex18 | inactive: -1.43

More results follow:

Row | Sequence | z-score
27 | CCUUCUCCCAUAAGGCCAATT against Zfp1 | inactive: -0.27
28 | GGAUUUUGUGAAUAAAUGCTT against Map2k1 | inactive: 0.346
29 | GGUGAAAGGAGUCAGUCUATT against Agtrap | inactive: -1.04
30 | GGAAUUAUUCAGCAAGACUTT against 1700019I23Rik | inactive: 0.226
31 | GGAUGUCAGUAUUUCCUGGTT against Glrx1 | inactive: 1.11
32 | GGAGAUGAAAUUGUUUAUCTT against Bpgm | inactive: 0.374
33 | GGCAAAGCAAGGUUGCUGATT against Ormdl3 | inactive: -0.0727
34 | GGCCACGGAGCUCUUUGUUTT against Chrac1 | inactive: -0.456
35 | GGAAGUAUGGGAUUAUGUGTT against Scpep1 | inactive: 0.115
36 | CCAGUUCUCUCGAAGACUUTT against Hoxb1 | inactive: 0.692
37 | GGUCCACAUUUUCGGCUAGTT against Kctd11 | inactive: -0.572
38 | GGAGUGCAAAAAGAGUUGCTT against Abce1 | inactive: -0.2
39 | GCAGCAUGCUGAAGAAAGATT against Jund1 | inactive: -0.68
40 | GGGUUACAAGCUUAGCUCCTT against Pcdhga5 | inactive: -0.846
41 | GGUGUGCUGAGAAAAAAUATT against Acate3 | inactive: -0.735
42 | GGUAGACCAGCUUGCUAAUTT against Plxnb1 | inactive: 1.81
43 | GCCGAUUUUUGGGAAUAAATT against Ptpn20 | inactive: -1.38
44 | GGGAUUACUUGUAACAUCATT against Abcc2 | inactive: 1.34
45 | GCUGAUUCUUCACUUUGUGTT against 2310005O14Rik | inactive: 0.15
46 | GCUGGUGGAUCAGAUUGAGTT against 5430431G03Rik | inactive: 1.51
47 | GGCUUGUUACCACAUGCUGTT against BC032204 | inactive: 0.664
48 | CCUAGAGAUUGGUAUGUACTT against Gm644 | inactive: 1.33
49 | GGAAAAUGUUCAUCUCUCATT against Oact2 | inactive: 0.622
50 | GGAUGACAGUUGAAUCGCCTT against Sepm | inactive: 0.663
51 | GGCUCUGAAAAUUGAACACTT against 4921537D05Rik | inactive: -1.94
52 | GGGAUCAUAAAGAUAACUUTT against Fasn | inactive: 0.581

Row | Sequence | z-score
53 | GGGACUAAUUCCAAUUUCATT against Pomt1 | inactive: -1.85
54 | GGCAGUGGAGCUGGACAAATT against Nkx2-5 | inactive: -1.98
55 | GCGGGUCAUAAAUCUGAUUTT against Aldh3a1 | inactive: 0.0646
56 | GGCCAAGUUUGACAAGGAATT against Nap1l5 | inactive: 3.05
57 | GCGUGUAUUCCACUCAUAATT against 2900045N06Rik | inactive: -0.759
58 | AACCAUUCAGGAGAAAGCCTT against Sprrl3 | inactive: -0.332
59 | CCGAAAGAACAAACAAAGGTT against 4930583H14Rik | inactive: 0.902
60 | GGUAGAACAUGAAGUCUCUTT against Siat7d | inactive: 0.254
61 | GGAUCAUUAACCCUGAAAUTT against Dscam | inactive: -0.543
62 | GCCAACUAUACAUCUUAUCTT against Sftpa1 | inactive: -0.189
63 | GGAGAACUUUGAUAUGGAGTT against Cuedc2 | inactive: -0.00918
64 | GGAUUACUGAUCUCCAAAATT against Cenpe | inactive: -0.448
65 | GCAGACUCCAUGCAAAACUTT against Slc5a8 | inactive: 0.698
66 | GGACUAUCUAGCAUAUACUTT against E130006D01Rik | inactive: -0.253
67 | GGCCUAAUCGAAAUGUGGCTT against Trim12 | inactive: 2.13
68 | CCAGGUAUUCUGAUAUCAGTT against Cd209d | inactive: 3.16
69 | GGGAAAGGAAGUUGUUUUGTT against Epha2 | inactive: -0.169
70 | GCCUUGAUCCUACUGUAACTT against Amigo3 | inactive: 1.32
71 | GGUGCUUCUAAACUCAGAGTT against Spg20 | inactive: -0.0377
72 | AUUGUAGCAGUGAAUUGGATT against Pdia6 | inactive: -0.255
73 | CCCUCGGUGCCUAAUAAAUTT against Hadh2 | inactive: 0.14
74 | CCUACUCAAAUGAAGUUGUTT against Pctk2 | inactive: -0.346
75 | GCACAAUCCGGUCAACAUGTT against Zbp1 | inactive: -1.11
76 | GGAGAAAGACAUCAGAAAGTT against CRAD-L | inactive: 0.666
77 | UGUGGUCUUAGAAUCUAGCTT against Tdpoz3 | inactive: 1.88
78 | GGGUACAUUACACUCAGGATT against 2610204G22Rik | inactive: -0.179

Row | Sequence | z-score
79 | GCUAUCAUGCAAGAUGGCATT against 0610025P10Rik | inactive: 0.0123
80 | GCACAACUUUGAGGUGUGGTT against Plekha4 | inactive: -0.344
81 | GCUCAACUUGGAAUUGGAGTT against B130017I01Rik | inactive: 0.644
82 | GCAGCUAGCAUAUAAUAACTT against Il21r | inactive: -0.349
83 | GGGAAUGUCUGAAAGUCCCTT against 2410127E18Rik | inactive: 0.245
84 | GCUUAAUUUCAUUUCAAGGTT against B3gnt5 | inactive: 0.00424
85 | GCUAAAGGAGUAUAAUAGUTT against A130066N16Rik | inactive: 1.06
86 | GGUGAACAAGAAAGAAGUCTT against Rpl3 | inactive: -2.46
87 | GGCUAAAUCUCACACUCCATT against 2010001M09Rik | inactive: 0.462
88 | GGCCAGAUUAACACUUACUTT against Eif3s3 | inactive: -1.04
89 | GCUCUUUCAUGUUAUUGAUTT against Dicer1 | inactive: 1.36
90 | CGUAUUCCCAAAUGUGAUGTT against Pcbp3 | inactive: -0.237
91 | GCUCAUCGUACCAUUUUCUTT against 9230105E10Rik | inactive: 0.734
92 | GCAGCAGAAUGCUAGAAAATT against Mtrf1 | inactive: -1.07
93 | GGCCUUUUCUCAUCUCUGGTT against Igfals | inactive: -0.0297
94 | GCCUUAGAGCUUGUAACUATT against Nbl1 | inactive: -0.301
95 | UGGUUGUAUUAUUCUGUUGTT against Defb38 | inactive: 1.33
96 | GGCUUUCCGCGCUAUUGAUTT against 5330414D10Rik | inactive: 0.113
97 | GGCUAUGGGAAAUAUAAGATT against Pde1b | inactive: -0.0685
98 | AGCCAAAGAAUGCAAAACATT against Snrpn | inactive: -0.329
99 | AGCUAAAAGAUCAUUGGAGTT against Ear10 | inactive: -0.759
100 | GGAAUUCAUGGAUAAGAAGTT against Hnmt | inactive: -1.02
101 | GCCAGUGUCCCUAAUAAGGTT against Ager | inactive: -0.71
102 | GGUGCACACAAUAAAUUAATT against Fcgr3 | inactive: -0.545
103 | GGAGAAAUUCAAAAGGAAUTT against Ms4a11 | inactive: 0.692
104 | GGAGGACAUAAAAUAUCUATT against Trim17 | inactive: 0.855
